Source: PubChem BioAssay AID1963591 (Tox21, 2024).

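CRE-bla HEK293T reporter cells under cAMP stimulation; the beta-lactamase FRET ratio is measured about 3 hours after compound addition. Each compound was run as a concentration series, mostly reaching a top of 92.4 µM. Fitted potency from the dose curve; a lower value means a more potent compound. Calls come from the whole dose curve: active means a well-fitted inhibition curve with enough effect in repeat runs, inconclusive means weak, mixed or opposite-direction curves, and inactive means a flat curve.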

Values are in µM. Every entry below has the call inconclusive. Only part of the assay is shown, chiefly results filed as inconclusive. A potency from a partial, single-point or poor curve is only a rough figure. Some entries filed as inconclusive have a full curve. The first word of each remark tells which way the curve ran; it can be opposite to the aim of the assay.

| # | SMILES | Potency (µM) | curve as filed |
|---|---|---|---|
| 1 | `CCCCCCC[CH2][Sn]([Cl])([Cl])[CH2]CCCCCCC` | 54.43 | inhibitor, partial curve, poor fit |
| 2 | `c1cc2ccc3cccc4ccc(c1)c2c34` | 65.03 | activator, partial curve, poor fit |
| 3 | `CC(C)(C)OC(=O)c1ncn2c1[C@@H]1CCCN1C(=O)c1c(Br)cccc1-2` | 10.59 | fluorescent |
| 4 | `CC1(C)CCC(C)(C)c2cc(C(=O)Nc3ccc(C(=O)O)cc3)ccc21` | 54.48 | fluorescent, partial curve |
| 5 | `CCN1CCC2(CC1)COc1cc3c(cc12)N(C(=O)c1ccc(-c2ccc(-c4nnc(C)o4)cc2C)cc1)CC3` | 56.38 | rising, partial curve |
| 6 | `Cc1c(-c2ccc(O)cc2)n(Cc2ccc(OCCN3CCCCCC3)cc2)c2ccc(O)cc12` | 6.682 | activator |
| 7 | `CC(=O)Oc1ccccc1C(=O)Nc1ncc([N+](=O)[O-])s1` | 9.883 | fluorescent, partial curve |
| 8 | `O=C(NCC1CCCCN1)c1cc(OCC(F)(F)F)ccc1OCC(F)(F)F` (stereo unspecified) | 0.0038 | inhibitor, full curve, poor fit |
| 9 | `O=c1n(CC2CO2)c(=O)n(CC2CO2)c(=O)n1CC1CO1` (stereo unspecified) | 24.19 | activator, partial curve, poor fit |
| 10 | `CC1=C(/C=C/C(C)=C/C=C/C(C)=C/C=O)C(C)(C)CCC1` | 60.76 | - |
| 11 | `CCO[Si](C)(CCCOCC1CO1)OCC` (stereo unspecified) | 56.95 | fluorescent, partial curve |
| 12 | `CCCCCC/C=C/C=O` | 68.59 | activator, partial curve, poor fit |
| 13 | `CC(C(O)c1ccccc1)N(C)CCOC(c1ccccc1)c1ccccc1` (stereo unspecified) | 29.85 | fluorescent, partial curve |
| 14 | `CC(C)(C)c1csc(-c2cc3cc(OCc4ccccc4CC(=O)O)ccc3o2)n1` | 40.32 | fluorescent, partial curve |
| 15 | `CCCC(C)c1ccccc1O` (stereo unspecified) | 76.96 | rising, single point |
| 16 | `CCCCC[C@H](O)/C=C/[C@H]1[C@H](O)CC(=O)[C@@H]1C/C=C\CCCC(=O)O` | 26.6 | fluorescent, partial curve |
| 17 | `Nc1ccc(N)c(Cl)c1` | 3.849 | activator, full curve, poor fit |
| 18 | `Nc1ccc([N+](=O)[O-])cc1` | 68.59 | falling, single point |
| 19 | `CC(=O)O[C@@]12CO[C@@H]1C[C@H](O)[C@@]1(C)C(=O)[C@H](O)C3=C(C)[C@@H](OC(=O)[C@H](O)[C@@H](NC(=O)OC(C)(C)C)c4ccccc4)C[C@@](O)([C@@H](OC(=O)c4ccccc4)[C@H]21)C3(C)C` | 13.33 | activator, full curve, poor fit |
| 20 | `CCCCCC[C@@H](O)C/C=C\CCCCCCCC(=O)OCC(O)CO` (stereo partly specified) | 68.59 | activator, partial curve, poor fit |
| 21 | `C=C(C)C(=O)OCCOCCOC(=O)C(=C)C` | 54.48 | fluorescent, partial curve |
| 22 | `O=c1oc2ccccc2c(O)c1C(CC(O)c1ccc(-c2ccc(Br)cc2)cc1)c1ccccc1` (stereo unspecified) | 10.59 | fluorescent, partial curve |
| 23 | `CC(C)(C)CC(C)(C)c1ccc(OCCO)cc1` | 24.19 | rising, partial curve, poor fit |
| 24 | `CCOC(=O)Cc1cccc2ccccc12` | 68.59 | single point |
| 25 | `CCCCCCCCCCCCCCCC[N+](C)(C)C` | 61.13 | fluorescent, single point |
| 26 | `CSc1ccc(C(=O)C(C)(C)N2CCOCC2)cc1` | 54.48 | activator, partial curve, poor fit |
| 27 | `OCCN1CCN(CC/C=C2/c3ccccc3Sc3ccc(C(F)(F)F)cc32)CC1` | 29.85 | rising, single point |
| 28 | `c1cc(N(CC2CO2)CC2CO2)ccc1OCC1CO1` (stereo unspecified) | 43.32 | activator, partial curve |
| 29 | `CCCCCCOc1ccc(O)cc1` | 14.31 | inhibitor, full curve, poor fit |
| 30 | `Oc1ccc(C(c2ccc(O)cc2)(C(F)(F)F)C(F)(F)F)cc1` | 60.82 | inhibitor |
| 31 | `O=[N+]([O-])c1ccc(Nc2ccccc2)cc1` | 61.57 | - |
| 32 | `Nc1nc2ccc([N+](=O)[O-])cc2s1` | 36.82 | activator, partial curve |
| 33 | `CCOC(=O)N1CCC(=C2c3ccc(Cl)cc3CCc3cccnc32)CC1` | 68.59 | - |
| 34 | `[Cl][Sn]([c]1ccccc1)([c]1ccccc1)[c]1ccccc1` | 2.908 | rising, partial curve |
| 35 | `CCCCCCCCCCn1cc[n+](C)c1` | 12.17 | inhibitor, partial curve |
| 36 | `Cc1nnc2n1-c1sc(CCc3ccc(CC(C)C)cc3)cc1C(c1ccccc1Cl)=NC2C` (stereo unspecified) | 23.71 | fluorescent, partial curve |
| 37 | `Cc1ccc(O)c(C(C)(C)C)c1` | 61.01 | - |
| 38 | `CCN(CC)C(=O)c1cc(S(=O)(=O)Cc2ccccc2)c(N2CCC(c3ccccc3)CC2)cc1N(CC)CCN(C)C` | 15.87 | fluorescent, partial curve |
| 39 | `CC(C)c1ccc2c(c1)CC[C@H]1[C@](C)(CN)CCC[C@]21C` | 76.96 | rising, partial curve, poor fit |
| 40 | `CC(C)(C)CC(C)(C)c1ccc(O)c(Cc2ccc(Cl)cc2Cl)c1` | 26.6 | rising, partial curve |
| 41 | `CN1CC[C@H](c2c(O)cc(O)c3c(=O)cc(-c4ccccc4Cl)oc23)[C@H](O)C1` | 9.439 | rising, partial curve |
| 42 | `Nc1ccc(-c2ccc(N)c(N)c2)cc1N` | 68.59 | inhibitor, single point |
| 43 | `O=C(c1ccccc1)c1ccccc1O` | 70.27 | rising, single point |
| 44 | `CC(C)c1cccc(C(C)C)c1N1C(=O)c2ccc(O)cc2C1=O` | 68.59 | rising, partial curve |
| 45 | `[Cl][Bi]([Cl])([c]1ccccc1)([c]1ccccc1)[c]1ccccc1` | 9.629 | fluorescent, full curve |
| 46 | `CN(C/C=C/C#CC(C)(C)C)Cc1cccc2ccccc12` | 26.6 | activator, partial curve, poor fit |
| 47 | `Nc1ccc(Cl)cc1N` | 34.38 | fluorescent, partial curve, poor fit |
| 48 | `Cc1cc(O)c(C(C)C)cc1Cl` | 33.49 | - |
| 49 | `CCCCC(=O)O[C@]1(C(=O)CO)[C@@H](C)C[C@H]2[C@@H]3CCC4=CC(=O)C=C[C@]4(C)[C@@]3(F)[C@@H](O)C[C@@]21C` | 30.64 | fluorescent |

4 of the entries, repeated:

SMILES	Potency (µM)	curve as filed
CN(C/C=C/C#CC(C)(C)C)Cc1cccc2ccccc12	26.6	activator, partial curve, poor fit
CCCCCCOc1ccc(O)cc1	14.31	inhibitor, full curve, poor fit
CC(=O)Oc1ccccc1C(=O)Nc1ncc([N+](=O)[O-])s1	9.883	fluorescent, partial curve
Oc1ccc(C(c2ccc(O)cc2)(C(F)(F)F)C(F)(F)F)cc1	60.82	inhibitor